From patent US8877759B2, “Aminopyrazines as ATR kinase inhibitors” (Vertex Pharnaceuticals Incorporated, priority 2011, dated 2014)

By UniProt entry, the sequences of proteins in these tests, tags left out.
UniProt Q13535, whole entry: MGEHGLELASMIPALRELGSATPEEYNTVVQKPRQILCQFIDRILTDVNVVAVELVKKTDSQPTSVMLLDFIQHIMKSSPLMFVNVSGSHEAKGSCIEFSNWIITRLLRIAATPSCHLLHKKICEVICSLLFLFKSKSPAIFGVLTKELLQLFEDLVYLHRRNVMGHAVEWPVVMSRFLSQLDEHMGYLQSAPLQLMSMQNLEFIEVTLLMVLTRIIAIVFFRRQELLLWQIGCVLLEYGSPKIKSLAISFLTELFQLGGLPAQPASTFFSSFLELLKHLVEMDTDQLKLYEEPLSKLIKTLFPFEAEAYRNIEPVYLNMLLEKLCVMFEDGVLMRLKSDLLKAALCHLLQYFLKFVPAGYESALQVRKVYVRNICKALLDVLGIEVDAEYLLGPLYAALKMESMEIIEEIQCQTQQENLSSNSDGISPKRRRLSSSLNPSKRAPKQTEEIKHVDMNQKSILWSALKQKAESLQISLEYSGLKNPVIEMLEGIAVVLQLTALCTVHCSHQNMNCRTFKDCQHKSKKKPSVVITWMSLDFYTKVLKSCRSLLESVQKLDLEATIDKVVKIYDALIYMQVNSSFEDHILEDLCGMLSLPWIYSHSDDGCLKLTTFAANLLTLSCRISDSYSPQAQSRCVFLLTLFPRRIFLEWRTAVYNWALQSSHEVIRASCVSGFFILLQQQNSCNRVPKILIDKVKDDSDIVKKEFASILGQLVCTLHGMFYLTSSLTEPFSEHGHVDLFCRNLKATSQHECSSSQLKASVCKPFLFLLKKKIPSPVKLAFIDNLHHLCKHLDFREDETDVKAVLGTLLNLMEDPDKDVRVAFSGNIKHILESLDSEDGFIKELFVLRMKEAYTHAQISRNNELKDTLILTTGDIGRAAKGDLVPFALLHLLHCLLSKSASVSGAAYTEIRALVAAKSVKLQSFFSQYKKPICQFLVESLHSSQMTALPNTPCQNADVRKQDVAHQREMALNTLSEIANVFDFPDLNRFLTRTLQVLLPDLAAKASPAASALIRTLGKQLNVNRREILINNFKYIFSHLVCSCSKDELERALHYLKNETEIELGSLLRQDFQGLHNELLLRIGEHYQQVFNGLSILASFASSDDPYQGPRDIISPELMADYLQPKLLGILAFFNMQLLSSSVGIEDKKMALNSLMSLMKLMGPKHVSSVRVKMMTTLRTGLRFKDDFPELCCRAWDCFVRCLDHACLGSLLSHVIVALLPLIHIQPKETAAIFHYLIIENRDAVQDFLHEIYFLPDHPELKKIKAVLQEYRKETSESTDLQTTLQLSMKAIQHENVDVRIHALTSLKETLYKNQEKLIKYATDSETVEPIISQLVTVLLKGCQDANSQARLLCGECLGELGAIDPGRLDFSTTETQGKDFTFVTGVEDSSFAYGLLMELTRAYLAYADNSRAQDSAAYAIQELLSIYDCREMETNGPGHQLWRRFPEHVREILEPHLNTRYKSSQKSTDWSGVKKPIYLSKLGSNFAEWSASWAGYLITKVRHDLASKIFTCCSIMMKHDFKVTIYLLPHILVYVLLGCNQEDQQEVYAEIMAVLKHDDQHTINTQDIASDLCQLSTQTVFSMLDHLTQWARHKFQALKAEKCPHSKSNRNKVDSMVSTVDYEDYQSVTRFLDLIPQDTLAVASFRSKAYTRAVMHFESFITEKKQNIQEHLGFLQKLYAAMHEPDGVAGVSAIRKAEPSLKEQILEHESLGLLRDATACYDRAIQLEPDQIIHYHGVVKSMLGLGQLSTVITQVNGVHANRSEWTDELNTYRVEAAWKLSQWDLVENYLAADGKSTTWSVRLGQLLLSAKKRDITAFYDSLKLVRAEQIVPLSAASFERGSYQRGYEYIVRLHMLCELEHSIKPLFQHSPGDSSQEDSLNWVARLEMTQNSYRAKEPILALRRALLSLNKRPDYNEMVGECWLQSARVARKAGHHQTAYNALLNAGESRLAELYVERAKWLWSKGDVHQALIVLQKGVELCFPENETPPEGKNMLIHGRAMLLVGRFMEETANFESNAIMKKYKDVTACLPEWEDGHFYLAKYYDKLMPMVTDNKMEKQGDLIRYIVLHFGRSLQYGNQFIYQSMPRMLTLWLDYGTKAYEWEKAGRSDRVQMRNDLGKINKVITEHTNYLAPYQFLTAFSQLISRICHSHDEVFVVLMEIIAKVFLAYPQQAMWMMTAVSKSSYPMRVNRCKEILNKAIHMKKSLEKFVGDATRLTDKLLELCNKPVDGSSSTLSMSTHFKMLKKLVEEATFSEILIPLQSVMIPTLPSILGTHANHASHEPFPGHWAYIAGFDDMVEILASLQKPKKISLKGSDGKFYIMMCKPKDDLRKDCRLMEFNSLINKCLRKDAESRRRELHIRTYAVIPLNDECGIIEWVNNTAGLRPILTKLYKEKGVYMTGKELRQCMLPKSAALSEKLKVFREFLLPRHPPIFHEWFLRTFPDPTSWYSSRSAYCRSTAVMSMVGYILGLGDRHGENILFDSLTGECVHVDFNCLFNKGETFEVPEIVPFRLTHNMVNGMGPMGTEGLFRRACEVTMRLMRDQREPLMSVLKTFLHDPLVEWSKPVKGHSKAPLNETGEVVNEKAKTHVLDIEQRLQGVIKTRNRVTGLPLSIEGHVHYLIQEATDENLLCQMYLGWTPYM

Each compound was assayed against full-length ATR (Homo sapiens, UniProt Q13535) (assay: ATR Inhibition Assay (radioactive-phosphate incorporation)). Settings: Ki(app); 5 nM full-length ATR, 10 μM [γ-33P]ATP, 800 μM target peptide, 25° C.

Structure (SMILES)	ATR Ki
CC(C)(C#N)c1cc(-c2cnc(N)c(-c3nnc(-c4ccc(O[C@@H]5CCNC5)cc4)o3)n2)ccn1	+++ (Compounds with a Ki value >5 nM but ≦1 nM are marked with “+++.”)
CN(C)CCN(C)c1ccc(-c2nnc(-c3nc(-c4ccnc(C(C)(C)C#N)c4)cnc3N)o2)cc1	+++ (Compounds with a Ki value >5 nM but ≦1 nM are marked with “+++.”)

Same assay, conditions: read-out: ATR Ki; Ki(app); 5 nM full-length ATR, 10 μM [γ-33P]ATP, 800 μM target peptide, 25° C.

Structure (SMILES)	Ki [nM]
CC(C)(C#N)c1cc(-c2cnc(N)c(-c3nnc(-c4ccc(NCCN)cc4)o3)n2)ccn1	< 1
Cc1ccsc1-c1nnc(-c2nc(-c3ccnc(C4(C#N)CCNCC4)c3)cnc2N)o1	5 to 20
CC(C)(C#N)c1cc(-c2cnc(N)c(-c3nnc(-c4ccc(NCCO)cc4)o3)n2)ccn1	< 1
CC(C)(C#N)c1cc(-c2cnc(N)c(-c3nnc(-c4ccc(NCC5CCCN5)cc4)o3)n2)ccn1 (stereo not shown)	< 1
CC(C)(C#N)c1cc(-c2cnc(N)c(-c3cc(-c4ccc(CNCC(=O)O)cc4)no3)n2)ccn1	5 to 20

The structures given here were assigned with low confidence; some may be wrong.
